Test [1] concerns the target native Fas from cell extracts of Jurkat T-cells (UniProt P25445). The experiment in a line: GST-FAP-1 pull-down from Jurkat cell extracts, Western analysis with anti-Fas antibody.
The target in test [2] is in vitro-translated 35S-labeled FAP-1 (from HFAP-10 cDNA) (UniProt Q12923). The experiment in a line: GST pull-down of in vitro-translated 35S FAP-1.
Test [3] deals with FAP-1 expressed from plasmid pVP16-31 (VP16 fusion, yeast two-hybrid prey) (UniProt Q12923). Nature of the test: yeast two-hybrid with pVP16-FAP-1.

Chains of the proteins cited; added tags and fusions are not shown. Residues count along the entry.
UniProt P25445, residues 26-335: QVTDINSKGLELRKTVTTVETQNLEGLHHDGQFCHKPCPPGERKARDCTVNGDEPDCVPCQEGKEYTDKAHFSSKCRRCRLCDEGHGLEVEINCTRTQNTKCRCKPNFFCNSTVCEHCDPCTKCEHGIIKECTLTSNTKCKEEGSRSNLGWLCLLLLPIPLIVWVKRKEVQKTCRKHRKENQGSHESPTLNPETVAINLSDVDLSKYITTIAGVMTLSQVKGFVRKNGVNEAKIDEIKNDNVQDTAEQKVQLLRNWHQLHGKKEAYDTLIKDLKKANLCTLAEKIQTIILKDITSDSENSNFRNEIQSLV
in vitro-translated 35S-labeled FAP-1 (from HFAP-10 cDNA) (Q12923, residues 1279-1883): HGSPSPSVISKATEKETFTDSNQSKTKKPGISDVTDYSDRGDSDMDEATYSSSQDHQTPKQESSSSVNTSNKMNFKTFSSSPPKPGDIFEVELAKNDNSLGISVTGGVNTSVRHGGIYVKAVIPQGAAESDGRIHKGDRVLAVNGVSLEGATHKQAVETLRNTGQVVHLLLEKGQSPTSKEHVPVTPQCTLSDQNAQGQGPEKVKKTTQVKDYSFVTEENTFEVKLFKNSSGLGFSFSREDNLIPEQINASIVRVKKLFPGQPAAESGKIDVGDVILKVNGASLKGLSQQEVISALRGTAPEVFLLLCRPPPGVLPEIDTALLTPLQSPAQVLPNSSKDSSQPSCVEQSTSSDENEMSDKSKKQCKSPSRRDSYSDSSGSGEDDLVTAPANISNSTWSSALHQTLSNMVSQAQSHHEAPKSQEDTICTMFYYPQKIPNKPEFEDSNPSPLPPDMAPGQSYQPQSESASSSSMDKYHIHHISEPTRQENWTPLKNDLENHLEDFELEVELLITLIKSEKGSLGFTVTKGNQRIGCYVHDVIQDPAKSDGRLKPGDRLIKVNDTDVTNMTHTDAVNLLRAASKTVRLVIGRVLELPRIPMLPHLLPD
FAP-1 expressed from plasmid pVP16-31 (VP16 fusion, yeast two-hybrid prey) (Q12923, residues 1350-1470): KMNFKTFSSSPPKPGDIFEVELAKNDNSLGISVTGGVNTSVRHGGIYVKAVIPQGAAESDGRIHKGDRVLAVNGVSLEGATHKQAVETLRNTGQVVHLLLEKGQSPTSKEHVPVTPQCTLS

Results are given in words; binding and its absence hold for the method and conditions named. For part of these data: In cells and extracts the contact can be indirect. Some results given as binding are weak or reduced against the parent protein; the word gives no strength.

Turning to “GST-FAP-1 (from UniProt P08515 1-218; Q12923 1279-1883)”, the binding entry in test [1] is on record as “binds”.

Regarding GST-SLV (from UniProt P08515 1-218), in test [2], the binding result is recorded as “binds”. For the substance “LexA-SLV fusion protein (from UniProt P0A7C2 1-202)”, the binding entry in test [3] is “binds”.
